Experimental data: the supplement of paper PMC10849652
The other results are listed elsewhere or left out.

Protein sequences, listed by entry. Tags and fused reporters are not part of them. Lines headed by an entry give the natural chain unless they say otherwise; changes in a name come on top.
UniProt Q9BT17: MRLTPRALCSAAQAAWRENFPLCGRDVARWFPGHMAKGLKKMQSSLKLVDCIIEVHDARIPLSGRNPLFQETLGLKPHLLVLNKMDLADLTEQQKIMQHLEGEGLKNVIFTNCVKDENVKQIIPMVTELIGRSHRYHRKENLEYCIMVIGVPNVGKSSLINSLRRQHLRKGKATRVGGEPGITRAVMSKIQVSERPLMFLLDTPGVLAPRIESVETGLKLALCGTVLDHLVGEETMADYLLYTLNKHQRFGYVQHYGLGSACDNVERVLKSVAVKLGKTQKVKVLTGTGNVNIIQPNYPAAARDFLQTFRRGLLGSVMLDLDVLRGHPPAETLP
UniProt Q49AM1: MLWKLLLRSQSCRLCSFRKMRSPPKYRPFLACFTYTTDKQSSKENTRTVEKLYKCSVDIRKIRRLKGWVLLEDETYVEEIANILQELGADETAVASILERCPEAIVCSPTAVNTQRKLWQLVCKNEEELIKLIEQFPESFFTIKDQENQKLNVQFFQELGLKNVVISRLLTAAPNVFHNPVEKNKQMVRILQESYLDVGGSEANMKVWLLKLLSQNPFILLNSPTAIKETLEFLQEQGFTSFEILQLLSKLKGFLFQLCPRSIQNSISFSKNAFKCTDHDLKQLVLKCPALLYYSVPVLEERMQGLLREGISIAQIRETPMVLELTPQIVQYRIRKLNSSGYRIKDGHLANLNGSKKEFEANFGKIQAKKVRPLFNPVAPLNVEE
UniProt Q9NXD2: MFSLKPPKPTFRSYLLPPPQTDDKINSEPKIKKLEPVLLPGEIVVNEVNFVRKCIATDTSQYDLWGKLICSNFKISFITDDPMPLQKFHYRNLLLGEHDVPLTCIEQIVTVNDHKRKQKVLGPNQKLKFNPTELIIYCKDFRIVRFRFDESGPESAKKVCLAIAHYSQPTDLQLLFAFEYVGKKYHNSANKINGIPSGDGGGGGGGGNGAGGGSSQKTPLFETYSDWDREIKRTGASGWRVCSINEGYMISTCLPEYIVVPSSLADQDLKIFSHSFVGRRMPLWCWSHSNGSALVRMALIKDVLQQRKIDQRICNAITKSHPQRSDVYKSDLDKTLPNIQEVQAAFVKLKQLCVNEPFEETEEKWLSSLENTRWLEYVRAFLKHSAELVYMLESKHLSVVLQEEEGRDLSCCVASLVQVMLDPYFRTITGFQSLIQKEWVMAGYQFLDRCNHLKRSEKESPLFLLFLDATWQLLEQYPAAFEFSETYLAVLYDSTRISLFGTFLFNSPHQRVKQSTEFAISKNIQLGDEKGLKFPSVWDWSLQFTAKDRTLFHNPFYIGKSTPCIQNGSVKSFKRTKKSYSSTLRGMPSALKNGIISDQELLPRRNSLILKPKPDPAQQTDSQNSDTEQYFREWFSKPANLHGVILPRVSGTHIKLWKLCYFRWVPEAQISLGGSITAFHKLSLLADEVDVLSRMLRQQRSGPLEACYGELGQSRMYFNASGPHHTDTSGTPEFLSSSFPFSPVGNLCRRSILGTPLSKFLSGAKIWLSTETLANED
UniProt Q96HJ5: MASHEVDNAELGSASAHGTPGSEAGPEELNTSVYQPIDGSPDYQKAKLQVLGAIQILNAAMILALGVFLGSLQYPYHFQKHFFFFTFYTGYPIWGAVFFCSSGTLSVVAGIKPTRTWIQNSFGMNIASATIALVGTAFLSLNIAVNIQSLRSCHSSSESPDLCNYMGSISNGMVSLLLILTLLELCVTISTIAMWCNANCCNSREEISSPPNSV
UniProt Q6P1R3: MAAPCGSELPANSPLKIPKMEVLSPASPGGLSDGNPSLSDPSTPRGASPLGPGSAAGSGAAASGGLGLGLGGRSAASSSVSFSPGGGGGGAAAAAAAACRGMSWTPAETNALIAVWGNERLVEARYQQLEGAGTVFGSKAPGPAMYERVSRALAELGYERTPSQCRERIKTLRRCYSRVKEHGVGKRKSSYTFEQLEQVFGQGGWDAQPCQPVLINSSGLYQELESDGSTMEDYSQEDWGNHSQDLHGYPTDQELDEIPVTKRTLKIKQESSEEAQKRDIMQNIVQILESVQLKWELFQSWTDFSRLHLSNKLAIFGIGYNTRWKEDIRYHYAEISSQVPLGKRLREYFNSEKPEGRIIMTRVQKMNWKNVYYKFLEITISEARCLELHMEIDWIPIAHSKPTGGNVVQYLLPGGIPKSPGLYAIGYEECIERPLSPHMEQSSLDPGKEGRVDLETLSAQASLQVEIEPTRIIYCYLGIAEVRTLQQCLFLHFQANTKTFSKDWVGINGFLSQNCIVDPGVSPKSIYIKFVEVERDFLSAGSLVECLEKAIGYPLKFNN
UniProt O75570: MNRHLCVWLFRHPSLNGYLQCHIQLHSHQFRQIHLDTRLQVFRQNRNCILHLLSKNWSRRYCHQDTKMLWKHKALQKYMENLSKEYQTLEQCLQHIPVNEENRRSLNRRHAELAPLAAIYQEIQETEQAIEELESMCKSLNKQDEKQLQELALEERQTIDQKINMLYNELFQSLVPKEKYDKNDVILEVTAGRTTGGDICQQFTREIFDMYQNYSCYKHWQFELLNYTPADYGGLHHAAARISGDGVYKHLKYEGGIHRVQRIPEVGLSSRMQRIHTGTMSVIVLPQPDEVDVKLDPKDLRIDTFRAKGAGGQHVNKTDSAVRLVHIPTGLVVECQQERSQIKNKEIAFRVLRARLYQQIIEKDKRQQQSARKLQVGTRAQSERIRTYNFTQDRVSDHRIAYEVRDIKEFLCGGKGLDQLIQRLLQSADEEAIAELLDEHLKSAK
UniProt Q2M296: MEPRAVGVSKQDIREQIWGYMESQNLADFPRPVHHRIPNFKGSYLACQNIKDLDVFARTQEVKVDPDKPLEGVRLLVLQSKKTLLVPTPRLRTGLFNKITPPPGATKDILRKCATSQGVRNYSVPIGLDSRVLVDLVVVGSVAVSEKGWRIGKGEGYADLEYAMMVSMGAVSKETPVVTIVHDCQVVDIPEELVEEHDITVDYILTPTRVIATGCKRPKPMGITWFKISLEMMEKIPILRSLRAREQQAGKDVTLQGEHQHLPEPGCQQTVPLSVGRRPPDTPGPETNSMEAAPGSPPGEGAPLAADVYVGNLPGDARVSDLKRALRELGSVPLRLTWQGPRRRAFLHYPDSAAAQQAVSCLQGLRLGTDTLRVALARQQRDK
UniProt O43312: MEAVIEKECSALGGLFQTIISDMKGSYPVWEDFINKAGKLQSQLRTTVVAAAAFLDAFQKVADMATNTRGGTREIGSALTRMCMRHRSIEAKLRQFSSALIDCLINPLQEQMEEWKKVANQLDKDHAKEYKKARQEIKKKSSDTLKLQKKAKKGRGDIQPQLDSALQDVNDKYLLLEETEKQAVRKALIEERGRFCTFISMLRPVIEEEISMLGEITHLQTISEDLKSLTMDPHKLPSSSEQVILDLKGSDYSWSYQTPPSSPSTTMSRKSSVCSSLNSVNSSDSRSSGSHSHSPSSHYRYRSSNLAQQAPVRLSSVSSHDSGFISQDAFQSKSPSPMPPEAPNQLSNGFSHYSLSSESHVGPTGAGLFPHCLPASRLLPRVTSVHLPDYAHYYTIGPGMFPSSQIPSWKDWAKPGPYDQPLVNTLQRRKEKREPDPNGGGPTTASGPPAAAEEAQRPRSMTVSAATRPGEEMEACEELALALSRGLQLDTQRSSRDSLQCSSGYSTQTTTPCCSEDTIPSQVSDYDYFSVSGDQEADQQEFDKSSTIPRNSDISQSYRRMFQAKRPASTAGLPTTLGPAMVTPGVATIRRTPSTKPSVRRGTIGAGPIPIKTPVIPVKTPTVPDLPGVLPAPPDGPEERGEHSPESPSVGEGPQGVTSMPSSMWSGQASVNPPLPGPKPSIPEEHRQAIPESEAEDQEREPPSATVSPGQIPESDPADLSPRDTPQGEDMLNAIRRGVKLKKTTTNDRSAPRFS
UniProt Q96EF0: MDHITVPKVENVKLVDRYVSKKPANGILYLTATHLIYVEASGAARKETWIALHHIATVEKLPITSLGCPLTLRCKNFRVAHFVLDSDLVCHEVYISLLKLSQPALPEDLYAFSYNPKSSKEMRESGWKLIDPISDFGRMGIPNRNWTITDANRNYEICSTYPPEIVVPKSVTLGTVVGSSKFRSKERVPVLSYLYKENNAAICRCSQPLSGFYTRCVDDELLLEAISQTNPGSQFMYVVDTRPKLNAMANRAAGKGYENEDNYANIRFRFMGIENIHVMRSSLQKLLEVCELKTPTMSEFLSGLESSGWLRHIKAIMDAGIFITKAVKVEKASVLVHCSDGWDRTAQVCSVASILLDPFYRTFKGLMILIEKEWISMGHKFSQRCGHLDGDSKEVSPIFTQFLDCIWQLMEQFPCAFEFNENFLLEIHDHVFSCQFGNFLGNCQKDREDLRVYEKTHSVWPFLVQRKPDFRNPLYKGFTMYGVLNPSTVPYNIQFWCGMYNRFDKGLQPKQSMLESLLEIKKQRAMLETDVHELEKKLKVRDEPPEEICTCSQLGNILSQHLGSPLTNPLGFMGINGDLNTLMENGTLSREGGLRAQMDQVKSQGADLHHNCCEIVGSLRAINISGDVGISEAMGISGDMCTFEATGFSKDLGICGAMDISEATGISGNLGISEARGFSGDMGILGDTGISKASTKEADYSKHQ
UniProt O43196: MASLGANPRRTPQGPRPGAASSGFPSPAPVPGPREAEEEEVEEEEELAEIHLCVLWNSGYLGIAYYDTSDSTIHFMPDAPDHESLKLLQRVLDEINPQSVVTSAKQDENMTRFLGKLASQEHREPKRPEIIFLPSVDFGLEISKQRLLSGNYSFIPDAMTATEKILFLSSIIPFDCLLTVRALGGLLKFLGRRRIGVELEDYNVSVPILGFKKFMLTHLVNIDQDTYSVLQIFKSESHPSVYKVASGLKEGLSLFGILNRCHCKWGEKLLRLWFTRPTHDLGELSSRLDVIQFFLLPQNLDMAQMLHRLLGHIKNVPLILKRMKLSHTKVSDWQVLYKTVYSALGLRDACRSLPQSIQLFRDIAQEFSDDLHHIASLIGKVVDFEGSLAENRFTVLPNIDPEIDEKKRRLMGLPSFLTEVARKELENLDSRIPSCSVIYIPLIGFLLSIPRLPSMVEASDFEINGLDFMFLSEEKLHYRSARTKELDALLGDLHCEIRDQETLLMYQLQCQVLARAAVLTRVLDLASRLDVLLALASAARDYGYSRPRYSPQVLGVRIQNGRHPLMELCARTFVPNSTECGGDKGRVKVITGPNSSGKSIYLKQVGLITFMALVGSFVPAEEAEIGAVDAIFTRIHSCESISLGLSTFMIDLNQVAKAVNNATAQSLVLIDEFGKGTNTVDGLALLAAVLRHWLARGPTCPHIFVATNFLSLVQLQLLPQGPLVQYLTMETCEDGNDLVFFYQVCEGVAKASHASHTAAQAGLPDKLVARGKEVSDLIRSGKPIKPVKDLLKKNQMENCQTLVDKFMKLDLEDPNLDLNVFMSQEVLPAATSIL
UniProt Q93083: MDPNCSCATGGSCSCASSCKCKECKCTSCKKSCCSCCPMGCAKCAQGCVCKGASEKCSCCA
UniProt P03897, whole entry, looked up: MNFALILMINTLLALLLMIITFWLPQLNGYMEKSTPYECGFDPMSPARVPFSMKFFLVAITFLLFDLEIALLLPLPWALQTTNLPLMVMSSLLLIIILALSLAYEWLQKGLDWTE
UniProt P13640: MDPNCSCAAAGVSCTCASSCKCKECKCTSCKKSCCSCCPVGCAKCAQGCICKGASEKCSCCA
UniProt Q9H903: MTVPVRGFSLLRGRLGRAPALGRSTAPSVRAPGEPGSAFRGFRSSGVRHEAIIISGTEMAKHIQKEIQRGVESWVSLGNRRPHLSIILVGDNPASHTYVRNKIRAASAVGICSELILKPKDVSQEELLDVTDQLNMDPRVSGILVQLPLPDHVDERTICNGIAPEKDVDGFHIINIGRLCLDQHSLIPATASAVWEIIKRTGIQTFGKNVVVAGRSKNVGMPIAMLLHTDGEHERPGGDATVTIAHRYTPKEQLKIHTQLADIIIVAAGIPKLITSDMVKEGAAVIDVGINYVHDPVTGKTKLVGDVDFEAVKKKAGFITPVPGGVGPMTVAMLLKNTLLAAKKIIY
UniProt Q9UJ68: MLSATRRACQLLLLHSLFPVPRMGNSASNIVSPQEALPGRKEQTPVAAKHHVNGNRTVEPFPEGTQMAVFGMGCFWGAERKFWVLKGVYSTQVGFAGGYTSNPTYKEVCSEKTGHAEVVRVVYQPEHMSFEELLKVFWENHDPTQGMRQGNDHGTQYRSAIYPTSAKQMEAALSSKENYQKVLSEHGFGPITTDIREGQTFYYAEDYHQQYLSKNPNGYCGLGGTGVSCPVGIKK

Key:
Assay in all cases: log2 fold change, soluble protein after heating vs DMSO (PISA); higher = thermal stabilisation; K562 lysate, 10 uM; active = over 0.2 and 3.5 SD of the protein, either way, in both replicates (recomputed)
[1] = compound: CC1=C(C(CC(=O)N1)C2=CC=C(C=C2)C(F)(F)F)C(=O)NC3=C(C=C4C(=C3)C=NN4)F
How it was run: (§1)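 Quantification was by TMTpro 16plex LC-MS/MS with equalised channel sums, applied to the supernatant after 21,000xg for 90 min. Samples were crude K562 extract at 1 mg/mL protein in PBS pH 7.4 with 1 mM MgCl2, treated with 10 μM compound for 30 min, heated for 3 min across 48°C-58°C, pooled and brought to 0.5% NP-40 at 4°C. Values are log-two fold changes in thermal stability relative to solvent controls, from duplicates.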

erlotinib = compound: C#Cc1cccc(Nc2ncnc3cc(OCCOC)c(OCCOC)cc23)c1 [erlotinib]
How it was run: as §1

[2] = compound: C1=CC(=CC=C1C2=NC3=C(N2)C=C(C=C3)C(=O)N)OC4=CC=C(C=C4)Cl
How it was run: as §1

[3] = compound: C1=CC2=NC=CN=C2C=C1/C=C/3\C(=O)NC(=O)S3
How it was run: as §1

[4] = compound: C1=CC=C(C=C1)C2=NC(=C(N2)C3=CC=NC=C3)C4=CC(=C(C=C4)Cl)O
How it was run: as §1

[5] = compound: C1CCN(C1)C(=O)NC2=CC=CC(=C2)NC3=NC=C(C(=N3)NCCC4=CN=CN4)Br
How it was run: as §1

[6] = compound: C1CN(CCC1(CC2=CC=C(C=C2)Cl)N)C3=NC=NC4=C3C=CN4
How it was run: as §1

IRAK-1-4 Inhibitor I = compound: C1COCCN1CCN2C3=CC=CC=C3N=C2NC(=O)C4=CC(=CC=C4)[N+](=O)[O-] [IRAK-1-4 Inhibitor I]
How it was run: as §1

ibrutinib = compound: C=CC(=O)N1CCC[C@@H](n2nc(-c3ccc(Oc4ccccc4)cc3)c3c(N)ncnc32)C1 [ibrutinib]
How it was run: as §1

[7] = compound: CC(=O)c1cnc2ccc(-c3cc(Cl)c(O)c(Cl)c3)nc2c1N[C@H]1CC[C@H](CN(C)C)CC1
How it was run: as §1

ralimetinib = compound: CC(C)(C)Cn1c(N)nc2ccc(-c3[nH]c(C(C)(C)C)nc3-c3ccc(F)cc3)nc21 [ralimetinib]
How it was run: as §1

[8] = compound: CC(C)(O)CC(=O)NCCn1ccc2ncnc(Nc3ccc(Oc4cccc(C(F)(F)F)c4)c(Cl)c3)c21
How it was run: as §1

[9] = compound: CC(C)C1=C2N=C(C=C(N2N=C1)NCC3=CC=CC=C3)NCCCCCCN
How it was run: as §1

[10] = compound: CC1=C(C2=C(C=C1)C(=O)C3=CC=CC=C3N2CCCN)C
How it was run: as §1

[11] = compound: CC1=C(C=C(C=C1)NC(=O)C2=CC(=CC=C2)C(C)(C)C#N)NC3=CC4=C(C=C3)N=CN(C4=O)C
How it was run: as §1

[12] = compound: CC1=C(C=C(C=C1)NC(=O)C2=CC(=CC=C2)N(C)C)NC(=O)C3=CC=C(C=C3)O
How it was run: as §1

[13] = compound: CC1=CC=C(C=C1)SC2=C3C=C(SC3=CN=C2)C(=O)N
How it was run: as §1

[14] = compound: C/C(=N\NC(=O)C1=CC(=CC=C1)S(=O)(=O)N2CCOCC2)/C3=C(C=CC(=C3)Cl)O
How it was run: as §1

[15] = compound: C1=CC2=C(C=CC(=C2)/C=C\3/C(=O)NC(=NCC4=CC=CS4)S3)N=C1
How it was run: as §1

[16] = compound: C1=CC=C2C(=C1)C3=NNC4=CC=CC(=C43)C2=O
How it was run: as §1

Measured: log2 fold change

MTG1 (UniProt Q9BT17)
inactive: [1] -0.297

MRPL27 (UniProt Q9P0M9)
inactive: erlotinib -0.072 | [2] 0.068 | [3] -0.019 | [4] 0.056 | [5] 0.023 | [6] 0.019 | IRAK-1-4 Inhibitor I -0.044 | ibrutinib -0.046 | [7] -0.057 | ralimetinib 0.023 | [8] -0.025 | [9] 0.106 | [1] 0.002 | [10] -0.195 | [11] -0.028 | [12] 0.1 | [13] 0.079

MTERF2 (UniProt Q49AM1)
inactive: erlotinib 0.093 | [2] 0.058 | [4] -0.045 | [5] 0.053 | [6] 0.108 | IRAK-1-4 Inhibitor I 0.037 | ralimetinib 0.082 | [8] -0.101 | [9] -0.035 | [10] 0.049 | [11] 0.067 | [12] 0.095

MTMR10 (UniProt Q9NXD2)
inactive: erlotinib -0.099 | [2] 0.004 | [4] 0.154 | IRAK-1-4 Inhibitor I 0.082 | [7] -0.007 | ralimetinib 0.078 | [8] -0.021 | [9] 0.114 | [1] -0.184 | [10] 0.236 | [11] 0.021 | [12] 0.312 | [13] -0.033

MS4A3 (UniProt Q96HJ5)
inactive: [14] 0.169 | [15] -0.038 | [16] 0.042 | [5] 0.049 | [6] 0.026 | [7] -0.063 | [11] 0.214 | [13] -0.037

MSANTD2 (UniProt Q6P1R3)
inactive: erlotinib -0.002 | [14] 0.106 | [2] 0.042 | [15] -0.112 | [16] -0.033 | [5] -0.126 | [6] 0.208 | [9] -0.041 | [10] -0.136 | [11] -0.032

MTRF1 isoform 2 (UniProt O75570)
inactive: [11] 0.047

MTHFR (UniProt F8W9T8)
inactive: [3] -0.211 | ibrutinib 0.176 | [1] 0.037

MTHFSD (UniProt Q2M296)
inactive: erlotinib -0.087 | [2] -0.041 | [3] 0.005 | [5] 0.001 | [6] 0.096 | ibrutinib 0.051 | [7] -0.017 | [9] 0.051 | [1] 0.059 | [10] -0.277 | [11] -0.029 | [13] 0.03

MTSS1 isoform 5 (UniProt O43312)
inactive: [4] -0.591 | IRAK-1-4 Inhibitor I -1.35 | [7] -0.408 | ralimetinib -0.165 | [8] 0.617 | [1] -0.024 | [10] 0.486 | [11] -0.001 | [12] 0.318 | [13] 0.507

MTMR8 (UniProt Q96EF0)
inactive: erlotinib -0.065 | [2] -0.317 | [3] -0.01 | ibrutinib 0.023 | [9] 0.015 | [10] 0.162

MSH5 isoform 3 (UniProt O43196)
inactive: [4] 1.15 | [5] 0.935 | [6] 0.508 | IRAK-1-4 Inhibitor I 0.577 | [7] 0.024 | ralimetinib 0.243 | [8] -0.056 | [10] -0.192 | [11] 0.034 | [12] -0.275 | [13] -0.026

MT1L (UniProt Q93083)
inactive: [3] -0.397 | ibrutinib 0.246 | [11] -0.031

MT-ND3 (UniProt P03897)
inactive: erlotinib 0.178 | [2] -0.172 | [3] -0.075 | [4] -0.228 | [5] -0.165 | [6] -0.019 | IRAK-1-4 Inhibitor I -0.239 | ibrutinib -0.442 | [7] -0.137 | ralimetinib -0.123 | [8] 0.207 | [9] -0.147 | [1] 0.046 | [11] -0.028 | [12] -0.142 | [13] -0.287

MT1G (UniProt P13640)
inactive: erlotinib 0.049 | [14] -0.009 | [2] 0.019 | [15] 0.054 | [3] 0.02 | [16] 0.074 | [5] -0.185 | [6] 0.147 | ibrutinib -0.002 | [7] -0.017 | [9] -0.208 | [1] -0.032 | [10] 0.045 | [11] 0.16 | [13] 0.013

2 entries drawn at random from those above:
MS4A3 (UniProt Q96HJ5)
inactive: [14] 0.169 | [15] -0.038 | [16] 0.042 | [5] 0.049 | [6] 0.026 | [7] -0.063 | [11] 0.214 | [13] -0.037

MTMR10 (UniProt Q9NXD2)
inactive: erlotinib -0.099 | [2] 0.004 | [4] 0.154 | IRAK-1-4 Inhibitor I 0.082 | [7] -0.007 | ralimetinib 0.078 | [8] -0.021 | [9] 0.114 | [1] -0.184 | [10] 0.236 | [11] 0.021 | [12] 0.312 | [13] -0.033

The listing continues.

MRPL24 (UniProt Q96A35)
inactive: erlotinib -0.033 | [14] 0.036 | [2] 0.122 | [15] 0.092 | [4] 0.027 | [16] -0.034 | [5] -0.034 | [6] -0.123 | IRAK-1-4 Inhibitor I -0.058 | [7] -0.018 | ralimetinib 0.028 | [8] 0.013 | [9] 0.062 | [1] -0.003 | [10] -0.143 | [11] 0.001 | [12] 0.038 | [13] 0.004

MTHFD2L (UniProt Q9H903)
inactive: erlotinib -0.057 | [2] 0.017 | [3] 0.256 | ibrutinib 0.044 | [9] -0.093 | [11] 0.059

MSRA (UniProt Q9UJ68)
inactive: [5] -0.016 | [6] 0.172 | [7] 0.015 | [13] 0.229

MUC19 (UniProt Q7Z5P9)
inactive: [3] -0.051 | [4] 0.107 | IRAK-1-4 Inhibitor I 0.138 | ibrutinib 0.023 | [7] -0.052 | ralimetinib -0.194 | [8] -0.177 | [12] 0.023 | [13] -0.01
